Assay results taken from publication PMC2888229.

By UniProt entry, the sequences of proteins in these tests, tags left out.
UniProt P05412, whole entry: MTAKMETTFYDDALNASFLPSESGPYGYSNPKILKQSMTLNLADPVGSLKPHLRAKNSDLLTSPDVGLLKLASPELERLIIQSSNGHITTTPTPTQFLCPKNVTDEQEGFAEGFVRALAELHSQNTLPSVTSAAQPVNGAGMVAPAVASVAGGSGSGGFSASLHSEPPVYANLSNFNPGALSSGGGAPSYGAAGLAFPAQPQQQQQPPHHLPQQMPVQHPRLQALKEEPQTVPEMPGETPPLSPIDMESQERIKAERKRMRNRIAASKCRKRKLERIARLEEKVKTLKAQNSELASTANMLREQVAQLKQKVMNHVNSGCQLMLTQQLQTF
UniProt Q15796, whole entry: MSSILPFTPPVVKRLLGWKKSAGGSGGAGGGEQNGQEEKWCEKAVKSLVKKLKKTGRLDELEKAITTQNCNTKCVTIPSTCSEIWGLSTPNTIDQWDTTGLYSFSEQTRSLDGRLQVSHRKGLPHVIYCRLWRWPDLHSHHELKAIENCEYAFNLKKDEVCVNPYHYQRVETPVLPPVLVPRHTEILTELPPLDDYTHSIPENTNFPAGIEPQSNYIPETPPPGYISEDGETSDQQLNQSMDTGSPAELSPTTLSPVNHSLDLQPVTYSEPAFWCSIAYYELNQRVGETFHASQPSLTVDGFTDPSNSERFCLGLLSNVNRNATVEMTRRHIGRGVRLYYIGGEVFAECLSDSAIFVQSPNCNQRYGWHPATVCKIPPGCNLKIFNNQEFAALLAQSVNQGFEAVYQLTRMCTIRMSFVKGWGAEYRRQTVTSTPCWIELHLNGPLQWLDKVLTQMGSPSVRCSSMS

What was measured:
[1] = target: c-Jun (Homo sapiens) (UniProt P05412); assay: EMSA supershift; conditions: EMSA: 5 ug nuclear extract, nuclear extraction buffer (composition not given) with 130 ng/uL poly dIdC, 0.7 mg/mL BSA, 15% glycerol, 30 min room temperature, 4% gel, protein in an extract, label: 32P
[2] = target: c-Jun (Homo sapiens) (UniProt P05412); assay: DNA pull-down, immunoblot; conditions: nuclear extract from bortezomib-treated fibroblasts, marked increase vs untreated; pull-down: 1 ug DNA, 300 ug extract, 0.2 mg/mL salmon DNA, 30 min RT, then beads with 150 mM NaCl 3 h 4 C; pH not stated; protein in an extract
[3] = target: phospho-Smad2 (Homo sapiens) (UniProt Q15796); assay: DNA pull-down, immunoblot; conditions: pull-down: 1 ug DNA, 300 ug extract, 0.2 mg/mL salmon DNA, 30 min RT, then beads with 150 mM NaCl 3 h 4 C, pH not stated, protein in an extract

Sequence: CTAGTGATGAGTCAGCCGGATC (double strand) [MMP-1 AP-1 EMSA probe]
- binding result ([1]; nuclear extract from TNF-alpha-treated fibroblasts (10 ng/mL, 1 h)): binds
- binding result ([1]; nuclear extract from bortezomib-treated fibroblasts (1 uM, 16 h)): binds
- binding result ([1]; nuclear extract from untreated fibroblasts, anti-c-Jun supershift): binds

Sequence: GATCGAGAGGATGTTATAAAGCATGAGTCAG (double strand) [Biotin-MMP-1 pull-down probe]
- binding result [2]: binds

Sequence: GAAAGGGCGGGGGAGGGCGGGAGGATGCGGAGGGCGGAG (double strand) [Biotin-COL1A2 pull-down probe]
- binding result ([3]; nuclear extract from TGF-beta + bortezomib-treated fibroblasts, enhanced vs TGF-beta alone): binds
- binding result ([3]; nuclear extract from TGF-beta-treated fibroblasts (5 ng/mL), substantial increase vs untreated): binds

Construct, isoform or probe ends are uncertain for at least one entry. Where cells or extracts were used, other partners may take part. For part of these data: At least one verdict was read from the data and is not stated in words by the source.
